Our source for the AC50 values is PubChem BioAssay AID493014 (National Center for Advancing Translational Sciences (NCATS), 2011).

Some of the results follow. Further columns of the screen follow, without active or inactive calls. Most of these compounds were active or inconclusive in the main read-out, so they are no random draw. Words in brackets tell the shape of the fitted curve; partial curves, single points and poor fits give uncertain potencies.

A short description of the assay: qHTS Assay to Find Inhibitors of Chronic Active B-Cell Receptor Signaling. The settings on record: ABC-DLBCL IkBa-CBG/CBR reporter, luminescence ratio (green luciferase fused to IkBa over red control in TMD8 lymphoma cells), 4 h. Put shortly: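 Concentration-response series (up to 46 uM) were applied to TMD8 dual-reporter cells for 4 h at 37C with doxycycline. Green/red ratio, after filter-overlap correction, defined %Activity; red signal alone was normalised to basal cells and zero luminescence.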

[1] abbreviates: measured here: CBR red luminescence, cell number.
[2] abbreviates: measured here: IkBa-CBG green luminescence.

Take `COc1ccc(NC(=O)c2ccc(NCCCN3CCOCC3)c([N+](=O)[O-])c2)cc1`: the half-maximal activity concentration (AC50) under setting [1] is 6.51 µM [falling, partial curve, poor fit].
Take `CCOC(=O)c1sc(N)nc1-c1ccccc1`: under setting [1], the concentration at half-maximal activity (AC50) is 0.164 µM [falling, partial curve, poor fit].
As for `COc1cc(NC(=O)C2CCN(c3cnccn3)CC2)cc(OC)c1OC`, the AC50 under setting [1] is 12.6 µM [falling, partial curve, poor fit].
Still for that read-out and setting: next, `O=C(Cn1c(=O)oc2ccccc21)NCCc1ccccc1`: 35.5 µM [falling, single point]; `CC(C)CCNC(=O)CCCOc1ccccc1`: 11.6 µM [rising, partial curve].
On to `O=C(CCCOc1ccc(Cl)cc1)NCC1CCCO1` (centres undefined), for which the AC50 under setting [2] was 35.5 µM [rising, partial curve, poor fit].
Turning to `Cc1nc(SCc2nc3ccccc3[nH]2)c2oc3cc(Br)ccc3c2n1`, under setting [1], the half-maximal activity concentration (AC50) was 25.9 µM [falling, single point].
For `CCc1nnc(SCC(=O)Nc2ccc(N3CCOCC3)cc2)o1`, under setting [1], the AC50 was 6.51 µM [falling, single point].
As for `O=C(O)c1ccc(CSCc2ccccc2F)o1`, the AC50 under setting [1] is 0.184 µM [rising, full curve, poor fit].
In the case of `COC(=O)c1sccc1NC(=O)C1CC=CCC1C(=O)O` (centres undefined), the AC50 under setting [1] was 5.8 µM [falling, partial curve, poor fit].
For the compound `O=C(N/N=C/c1ccc(O)c([N+](=O)[O-])c1)C1CC1(c1ccccc1)c1ccccc1` (centres undefined), the AC50 under setting [1] is 4.47 µM [falling, full curve, poor fit].
With `CC(OC(=O)CNC(=O)COc1ccccc1)C(=O)N(C)Cc1ccccc1` (centres undefined), under setting [1], the AC50 is 18.4 µM [rising, single point].
As for `CC(=O)NCCn1c(SCc2ccccc2C)nc2ccccc2c1=O`, the AC50 under setting [1] was 35.5 µM [falling, single point].
Turning to `O=C(NNC(=O)c1ccccc1F)c1cccc(Cl)c1`, under setting [1], the half-maximal activity concentration (AC50) is 10 µM [falling, partial curve].
On the same count and under the same terms, to `Cc1ccc(/C=C\c2nccc3c2[nH]c2ccccc23)cc1` belongs 10 µM [falling, partial curve, poor fit].
Take `CCOc1cc(N2CCOCC2)c(OCC)cc1NC(=O)c1cnccn1`: the AC50 under setting [1] is 9.2 µM [rising, partial curve] and the AC50 under setting [2] was 10.3 µM [falling, partial curve, poor fit].
With `O=C(CCC(=O)N1CCN(S(=O)(=O)c2ccc([N+](=O)[O-])cc2)CC1)N1CCOCC1`, the AC50 under setting [1] was 18.4 µM [rising, partial curve, poor fit].
Regarding `Cc1ccc(C(=O)CN2/C(=C(\O)c3ccccc3)C(=O)c3ccccc3S2(=O)=O)c(C)c1`, the AC50 under setting [1] was 0.708 µM [falling, full curve, poor fit].

A word on the AC50: it is the concentration at which the activity in the assay is half-maximal.
